Biological target: the molecule itself
Experiment: self-assembly in aqueous buffer, fibers seen by SEM

B1: Ultrabithorax (Ubx) splicing isoform Ia, full length, N-terminally His-tagged (other)
chain: MNSYFEQASGFYGHPHQATGMAMGSGGHHDQTASAAAAAYRGFPLSLGMSPYANHHLQRTTQDSPYDASITAACNKIYGDGAGAYKQDCLNIKADAVNGYKDIWNTGGSNGGGGGGGGGGGGGAGGTGGAGNANGGNAANANGQNNPAGGMPVRPSACTPDSRVGGYLDTSGGSPVSHRGGSAGGNVSVSGGNGNAGGVQSGVGVAGAGTAWNANCTISGAAAQTAAASSLHQASNHTFYPWMAIAGKIRSDLTQYGGISTDMGKRYSESLAGSLLPDWLGTNGLRRRGRQTYTRYQTLELEKEFHTNHYLTRRRRIEMAHALCLTERQIKIWFQNRRMKLKKEIQAIKELNEQEKQAQAQKAAAAAAAAAAVQGGHLDQ
notes: Recombinant, from E. coli, pET19b; Self-assembles into fibrils, films and fibers; the number of copies is not defined; also called UbxIa; Ubx 1-380; not shown: N-terminal His-tag appended by the pET19b vector
B1: binds.
